Here are results for 28 compounds from the supplement of paper PMC4604168 (melanoma cell lines).

Each structure is given as a SMILES string. The list shows a part of the results. Many values rest on one well or one pass, so single values are uncertain.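 Imaging used 1,536-well plates; nuclei positive for cleaved PARP by antibody were divided by total DNA-stained nuclei to yield the apoptosis fraction. Doses for screening kept most cells viable, and cell lines differ markedly in resting and induced cleaved-PARP levels.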

This test deals with COLO800. In words: cleaved PARP positive nuclei fraction relative to DMSO control; melanoma cells; higher = more apoptosis. The conditions noted are these: library dose: low library concentration; 72 h.
For the compound `CS(=O)(=O)c1ccc(C(=O)Nc2ccc(Cl)c(-c3ccccn3)c2)c(Cl)c1` [vismodegib] + OCc1c[nH]c2ccccc12 [Indole-3-carbinol] (first compound 1 µM, partner dose 0.8 µM), the “cleaved PARP positive nuclei fraction” value was determined as 89.9%.
In the case of `COc1ccc(C2=N[C@@H](c3ccc(Cl)cc3)[C@@H](c3ccc(Cl)cc3)N2C(=O)N2CCNC(=O)C2)c(OC(C)C)c1` [Nutlin-3] + NC1(c2ccc(-c3nc4ccn5c(=O)[nH]nc5c4cc3-c3ccccc3)cc2)CCC1 [MK2206] (first compound 0.1 µM, partner dose 0.4 µM), the “cleaved PARP positive nuclei fraction” value was 39.9%.
Next, `COc1ccc(C2=N[C@@H](c3ccc(Cl)cc3)[C@@H](c3ccc(Cl)cc3)N2C(=O)N2CCNC(=O)C2)c(OC(C)C)c1` [Nutlin-3] + Clc1ccc(Nc2nnc(Cc3ccncc3)c3ccccc23)cc1 [vatalanib] (first compound 0.1 µM, partner dose 2 µM): 53%; `Cn1sc(=O)n(Cc2ccccc2)c1=O` + CN(c1ncccc1CNc1nc(Nc2ccc3c(c2)CC(=O)N3)ncc1C(F)(F)F)S(C)(=O)=O [PF562271] (first compound 0.4 µM, partner dose 0.08 µM): 63.9%; `Cn1cnc2c(F)c(Nc3ccc(Br)cc3Cl)c(C(=O)NOCCO)cc21` [selumetinib] + CNC(=O)c1cc(Oc2ccc(NC(=O)Nc3ccc(Cl)c(C(F)(F)F)c3)cc2)ccn1 [sorafenib] (first compound 0.015 µM, partner dose 0.4 µM): 12.9%.
Turning to `NC1(c2ccc(-c3nc4ccn5c(=O)[nH]nc5c4cc3-c3ccccc3)cc2)CCC1` + CCCS(=O)(=O)Nc1ccc(F)c(C(=O)c2c[nH]c3ncc(Cl)cc23)c1F [PLX4720] (first compound 0.4 µM, partner dose 0.08 µM), the “cleaved PARP positive nuclei fraction” value was 160%.
As for `NC(=O)c1ccc(N(C(N)=O)c2c(F)cccc2F)nc1-c1ccc(F)cc1F` + C#Cc1cccc(Nc2ncnc3cc(OCCOC)c(OCCOC)cc23)c1 [erlotinib] (first compound 0.4 µM, partner dose 0.8 µM), the “cleaved PARP positive nuclei fraction” value came out at 94.3%.
Take `C[C@@H](N)c1ccc(C(=O)Nc2ccnc3[nH]ccc23)cc1` + Cn1sc(=O)n(Cc2ccccc2)c1=O [TDZD-8] (first compound 0.4 µM, partner dose 0.4 µM): the “cleaved PARP positive nuclei fraction” value was 40.1%.
Then `CS(=O)(=O)c1ccc(C(=O)Nc2ccc(Cl)c(-c3ccccn3)c2)c(Cl)c1` [vismodegib] + CCCCCCCCc1ccc(CCC(N)(CO)CO)cc1 [fingolimod] (first compound 1 µM, partner dose 2 µM), with 213%; and `Cn1cnc2c(F)c(Nc3ccc(Br)cc3Cl)c(C(=O)NOCCO)cc21` [selumetinib] + C#Cc1cccc(Nc2ncnc3cc(OCCOC)c(OCCOC)cc23)c1 [erlotinib] (first compound 0.015 µM, partner dose 0.8 µM), with 29.4%.
Then `CC1(C)CCC(c2ccc(Cl)cc2)=C(CN2CCN(c3ccc(C(=O)NS(=O)(=O)c4ccc(N[C@H](CCN5CCOCC5)CSc5ccccc5)c(S(=O)(=O)C(F)(F)F)c4)cc3)CC2)C1` + CS(=O)(=O)CCNCc1ccc(-c2ccc3ncnc(Nc4ccc(OCc5cccc(F)c5)c(Cl)c4)c3c2)o1 [lapatinib] (first compound 0.4 µM, partner dose 0.8 µM), with 131%; and `CC1(C)CCC(c2ccc(Cl)cc2)=C(CN2CCN(c3ccc(C(=O)NS(=O)(=O)c4ccc(N[C@H](CCN5CCOCC5)CSc5ccccc5)c(S(=O)(=O)C(F)(F)F)c4)cc3)CC2)C1` + O=C(O)[C@@H]1[O][Sb](=[O])([O][Sb]2(=[O])[O][C@H]([C@H](O)CO)[C@H](O)[C@H](C(=O)O)[O]2)[O][C@H]([C@H](O)CO)[C@@H]1O [stibogluconate] (first compound 0.4 µM, partner dose 2 µM), with 37%.
For the compound `CC1(C)CCC(c2ccc(Cl)cc2)=C(CN2CCN(c3ccc(C(=O)NS(=O)(=O)c4ccc(N[C@H](CCN5CCOCC5)CSc5ccccc5)c(S(=O)(=O)C(F)(F)F)c4)cc3)CC2)C1` + Nc1ccn([C@@H]2O[C@H](CO)[C@@H](O)C2(F)F)c(=O)n1 [gemcitabine] (first compound 0.4 µM, partner dose 0.0004 µM), the “cleaved PARP positive nuclei fraction” value was determined as 90.2%.
Then `C[C@]1(O)C[C@@H](c2nc(-c3ccc4ccc(-c5ccccc5)nc4c3)c3c(N)nccn32)C1` + CC(=O)O[C@@]12CO[C@@H]1C[C@H](O)[C@@]1(C)C(=O)[C@H](O)C3=C(C)[C@@H](OC(=O)[C@H](O)[C@@H](NC(=O)OC(C)(C)C)c4ccccc4)C[C@@](O)([C@@H](OC(=O)c4ccccc4)[C@H]21)C3(C)C [Docetaxel] (first compound 0.4 µM, partner dose 0.0001 µM), with 478%; and `CC1(C)CCC(c2ccc(Cl)cc2)=C(CN2CCN(c3ccc(C(=O)NS(=O)(=O)c4ccc(N[C@H](CCN5CCOCC5)CSc5ccccc5)c(S(=O)(=O)C(F)(F)F)c4)cc3)CC2)C1` + Cn1sc(=O)n(Cc2ccccc2)c1=O [TDZD-8] (first compound 0.4 µM, partner dose 0.4 µM), with 171%.
As to `C[C@]1(O)C[C@@H](c2nc(-c3ccc4ccc(-c5ccccc5)nc4c3)c3c(N)nccn32)C1` + OCc1c[nH]c2ccccc12 [Indole-3-carbinol] (first compound 0.4 µM, partner dose 0.8 µM), the “cleaved PARP positive nuclei fraction” value came out at 208%.
As to `CN(c1ncccc1CNc1nc(Nc2ccc3c(c2)CC(=O)N3)ncc1C(F)(F)F)S(C)(=O)=O` + C[C@]1(c2nc3c(C(N)=O)cccc3[nH]2)CCCN1 [Veliparib] (first compound 0.08 µM, partner dose 1.4 µM), the “cleaved PARP positive nuclei fraction” value came to 147%.
On to `C[C@]1(O)C[C@@H](c2nc(-c3ccc4ccc(-c5ccccc5)nc4c3)c3c(N)nccn32)C1` + CCCS(=O)(=O)Nc1ccc(F)c(C(=O)c2c[nH]c3ncc(Cl)cc23)c1F [PLX4720] (first compound 0.4 µM, partner dose 0.08 µM), for which the “cleaved PARP positive nuclei fraction” value is 186%.
With `CN(c1ncccc1CNc1nc(Nc2ccc3c(c2)CC(=O)N3)ncc1C(F)(F)F)S(C)(=O)=O` + Cn1c(=O)n(-c2ccc(C(C)(C)C#N)cc2)c2c3cc(-c4cnc5ccccc5c4)ccc3ncc21 [NVP-BEZ235] (first compound 0.08 µM, partner dose 0.004 µM), the “cleaved PARP positive nuclei fraction” value was determined as 79.5%.
Next, `NC(=O)c1ccc(N(C(N)=O)c2c(F)cccc2F)nc1-c1ccc(F)cc1F` + CC(=O)c1c(C)c2cnc(Nc3ccc(N4CCNCC4)cn3)nc2n(C2CCCC2)c1=O [palbociclib] (first compound 0.4 µM, partner dose 0.04 µM): 129%; `CN(c1ncccc1CNc1nc(Nc2ccc3c(c2)CC(=O)N3)ncc1C(F)(F)F)S(C)(=O)=O` + CCCS(=O)(=O)Nc1ccc(F)c(C(=O)c2c[nH]c3ncc(Cl)cc23)c1F [PLX4720] (first compound 0.08 µM, partner dose 0.08 µM): 110%.
Next, `CCCCCCCCc1ccc(CCC(N)(CO)CO)cc1` [fingolimod] + Nc1nc(F)nc2c1ncn2[C@@H]1O[C@H](CO)[C@@H](O)[C@@H]1O [fludarabine] (first compound 2 µM, partner dose 0.2 µM): 105%.
Then `CCCCCCCCc1ccc(CCC(N)(CO)CO)cc1` [fingolimod] + CC(=O)c1c(C)c2cnc(Nc3ccc(N4CCNCC4)cn3)nc2n(C2CCCC2)c1=O [palbociclib] (first compound 2 µM, partner dose 0.04 µM), with 81.3%; and `CC(=O)O[C@@]12CO[C@@H]1C[C@H](O)[C@@]1(C)C(=O)[C@H](O)C3=C(C)[C@@H](OC(=O)[C@H](O)[C@@H](NC(=O)OC(C)(C)C)c4ccccc4)C[C@@](O)([C@@H](OC(=O)c4ccccc4)[C@H]21)C3(C)C` [Docetaxel] + Cc1cc(Nc2cc(N3CCN(C)CC3)nc(/C=C/c3ccccc3)n2)n[nH]1 [ENMD2076] (first compound 0.0001 µM, partner dose 0.04 µM), with 254%; and `CC1(C)CCC(c2ccc(Cl)cc2)=C(CN2CCN(c3ccc(C(=O)NS(=O)(=O)c4ccc(N[C@H](CCN5CCOCC5)CSc5ccccc5)c(S(=O)(=O)C(F)(F)F)c4)cc3)CC2)C1` + CCCS(=O)(=O)Nc1ccc(F)c(C(=O)c2c[nH]c3ncc(Cl)cc23)c1F [PLX4720] (first compound 0.4 µM, partner dose 0.08 µM), with 94.4%.
On to `CC(=O)O[C@@]12CO[C@@H]1C[C@H](O)[C@@]1(C)C(=O)[C@H](O)C3=C(C)[C@@H](OC(=O)[C@H](O)[C@@H](NC(=O)OC(C)(C)C)c4ccccc4)C[C@@](O)([C@@H](OC(=O)c4ccccc4)[C@H]21)C3(C)C` [Docetaxel] + Cn1c(Nc2ccc(C(F)(F)F)cc2)nc2cc(Oc3ccnc(-c4ncc(C(F)(F)F)[nH]4)c3)ccc21 [CHIR265] (first compound 0.0001 µM, partner dose 0.08 µM), for which the “cleaved PARP positive nuclei fraction” value is 238%.
Next, `Cn1sc(=O)n(Cc2ccccc2)c1=O` + CC(C)C[C@H](NC(=O)[C@H](Cc1ccccc1)NC(=O)c1cnccn1)B(O)O [Bortezomib] (first compound 0.4 µM, partner dose 0.001 µM): 109%; `COc1ccc(C2=N[C@@H](c3ccc(Cl)cc3)[C@@H](c3ccc(Cl)cc3)N2C(=O)N2CCNC(=O)C2)c(OC(C)C)c1` [Nutlin-3] + C=CCNC1=C2C[C@@H](C)C[C@H](OC)[C@H](O)[C@@H](C)/C=C(\C)[C@H](OC(N)=O)[C@@H](OC)/C=C\C=C(/C)C(=O)NC(=CC1=O)C2=O [Tanespimycin] (first compound 0.1 µM, partner dose 0.002 µM): 24.5%.
